{"source": "patent US20110059175A9", "about": "“ENHANCING SOLUBILITY AND DISSOLUTION RATE OF POORLY SOLUBLE DRUGS” (K.U.LEUVEN RESEARCH AND DEVELOPMENT, priority 2006, published 2011)", "origin": "cited, not measured here", "details": "after 3 hours; Six et al., 2003", "note": "At least one structure is not confirmed: it was looked up by name or label, or the drawing left a doubt.", "data": [{"smiles": "CCC(C)n1ncn(-c2ccc(N3CCN(c4ccc(OCC5COC(Cn6cncn6)(c6ccc(Cl)cc6Cl)O5)cc4)CC3)cc2)c1=O", "note": "(stereo not shown) [pure glassy Itraconazole, Itraconazole]", "values": [{"measurement": "release", "value": 14, "unit": "%"}]}]}
